In patent publication US4637997A (Institut National de la Sante et de la Recherche Medicale, priority 1984, dated 1987):
* marks the point of attachment. Boc = CC(C)(C)OC(=O)*; OtBu = CC(C)(C)O*

Assay: general procedure: solution-phase peptide synthesis; isobutyl chloroformate / N-methylmorpholine (mixed anhydride)
Details: coupling step

Boc-PIPY-OMe
step yield: 65.7%

Boc-VE(OtBu)PIPY-OMe
step yield: 40.7%
